Assay results as given in paper doi:10.1101/2021.10.07.21264568.
No constants are given. Whether binding was seen depends on the method and setting. In cells and extracts the contact can be indirect. Some binding calls cover weakened binding; strength is not graded here.

Target: T1, HCN1 (human (endogenous in induced neurons)) (UniProt O60741)
T1 sequence: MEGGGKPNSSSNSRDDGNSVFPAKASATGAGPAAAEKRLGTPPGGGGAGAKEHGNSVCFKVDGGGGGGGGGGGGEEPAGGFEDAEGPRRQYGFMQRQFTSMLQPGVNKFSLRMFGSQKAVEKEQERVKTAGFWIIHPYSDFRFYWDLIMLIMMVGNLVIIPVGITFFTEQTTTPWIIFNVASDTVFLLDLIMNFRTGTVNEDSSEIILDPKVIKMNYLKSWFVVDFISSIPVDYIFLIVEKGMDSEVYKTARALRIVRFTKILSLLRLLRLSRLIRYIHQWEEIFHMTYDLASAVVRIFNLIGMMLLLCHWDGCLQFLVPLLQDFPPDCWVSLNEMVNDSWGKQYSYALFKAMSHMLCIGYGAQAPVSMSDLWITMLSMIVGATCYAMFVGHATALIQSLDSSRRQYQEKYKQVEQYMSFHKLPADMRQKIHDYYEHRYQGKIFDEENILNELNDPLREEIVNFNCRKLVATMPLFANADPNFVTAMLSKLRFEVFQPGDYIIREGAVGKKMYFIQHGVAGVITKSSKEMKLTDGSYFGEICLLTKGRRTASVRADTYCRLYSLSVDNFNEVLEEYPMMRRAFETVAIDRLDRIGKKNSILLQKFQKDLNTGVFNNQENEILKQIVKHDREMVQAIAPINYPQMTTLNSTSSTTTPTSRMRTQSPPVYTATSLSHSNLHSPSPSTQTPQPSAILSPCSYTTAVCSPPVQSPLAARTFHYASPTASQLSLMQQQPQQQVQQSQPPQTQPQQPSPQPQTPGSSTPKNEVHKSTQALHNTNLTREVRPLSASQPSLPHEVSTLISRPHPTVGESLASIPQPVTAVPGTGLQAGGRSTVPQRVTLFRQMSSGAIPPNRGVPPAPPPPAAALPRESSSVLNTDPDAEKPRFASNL
Test: co-IP

B1: SYNGAP1 (protein, UniProt Q96PV0 1-1343)
chain: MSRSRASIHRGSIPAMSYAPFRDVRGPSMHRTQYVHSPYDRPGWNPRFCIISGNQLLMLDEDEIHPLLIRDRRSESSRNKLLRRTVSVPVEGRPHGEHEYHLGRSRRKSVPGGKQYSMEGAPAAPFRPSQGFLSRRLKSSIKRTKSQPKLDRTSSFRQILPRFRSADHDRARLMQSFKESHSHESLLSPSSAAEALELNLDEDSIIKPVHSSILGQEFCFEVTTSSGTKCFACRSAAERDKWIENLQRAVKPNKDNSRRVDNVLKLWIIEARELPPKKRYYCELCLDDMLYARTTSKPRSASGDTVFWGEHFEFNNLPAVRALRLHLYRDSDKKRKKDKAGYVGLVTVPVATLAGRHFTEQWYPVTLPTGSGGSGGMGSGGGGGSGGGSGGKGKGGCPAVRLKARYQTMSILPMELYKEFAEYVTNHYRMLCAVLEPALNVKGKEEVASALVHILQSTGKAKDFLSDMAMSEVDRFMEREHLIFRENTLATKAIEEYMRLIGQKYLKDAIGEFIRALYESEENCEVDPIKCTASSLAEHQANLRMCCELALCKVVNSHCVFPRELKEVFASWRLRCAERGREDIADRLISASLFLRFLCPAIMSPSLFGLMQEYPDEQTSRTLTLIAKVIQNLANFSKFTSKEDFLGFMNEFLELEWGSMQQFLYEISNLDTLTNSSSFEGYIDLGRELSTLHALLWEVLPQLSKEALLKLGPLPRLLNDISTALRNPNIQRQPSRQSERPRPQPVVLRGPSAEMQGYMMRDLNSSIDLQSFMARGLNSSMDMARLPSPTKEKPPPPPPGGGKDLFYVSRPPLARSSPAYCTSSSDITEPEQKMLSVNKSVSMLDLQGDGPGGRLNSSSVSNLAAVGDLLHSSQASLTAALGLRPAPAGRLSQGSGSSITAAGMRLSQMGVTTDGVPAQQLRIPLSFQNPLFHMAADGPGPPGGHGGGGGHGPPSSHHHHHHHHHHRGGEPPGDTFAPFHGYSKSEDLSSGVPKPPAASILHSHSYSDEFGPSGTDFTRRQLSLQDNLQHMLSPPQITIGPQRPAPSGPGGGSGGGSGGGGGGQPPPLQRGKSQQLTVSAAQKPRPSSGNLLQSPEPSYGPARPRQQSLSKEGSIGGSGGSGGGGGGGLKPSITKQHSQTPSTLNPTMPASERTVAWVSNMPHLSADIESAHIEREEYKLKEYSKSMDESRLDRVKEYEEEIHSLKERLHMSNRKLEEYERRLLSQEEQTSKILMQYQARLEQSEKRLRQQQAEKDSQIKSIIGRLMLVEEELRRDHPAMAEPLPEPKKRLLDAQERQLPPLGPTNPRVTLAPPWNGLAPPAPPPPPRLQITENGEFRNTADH
- binding: binds
